Literature values, collected in patent US7329401B2, “Cyclooxygenase-2 selective agents useful as imaging probes and related methods” (The Regents of the University of California, priority 2002, dated 2008).
At least one compound was matched to its structure with a doubt left.

Tested on: prostaglandin synthesis
Settings: cited from Gans et al. J. Pharmacol. Exp. Ther. 1990; cited from earlier work

**Q.** With CS(=O)(=O)c1ccc(-c2cc(Br)sc2-c2ccc(F)cc2)cc1 [DuP-697] as the molecule, how does the IC50 read?
**A.** > 1 µM
